Experimental data: PubChem BioAssay AID1159584 (Peter MacCallum Cancer Centre, 2016)

Test: 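Genes that CDH1-null MCF10A cells selectively depend on to survive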 (primary screen)
Cell system: human MCF10A breast epithelial cells, parental and CDH1-null
Reagents: siRNA against human genes
Measurement: 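Cell viability by CellTiter-Glo ATP luminescence, each line scaled to the mean of mock wells across plates, then CDH1-null over parental ratio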
Reading the numbers: CDH1-null / parental viability ratio: higher = CDH1-null cells survive relatively better than parental
This is one part, drawn at random, of about 18,000 deposited reagents. Further read-outs or replicates are left out here. Reagent sequences are not shown. Not stated in the record: the amount of reagent, the time to read-out.

no.	gene symbol	CDH1-null / parental viability ratio
1	SMARCD2 (SWI/SNF related BAF chromatin remodeling complex subunit D2)	1.54
2	ZNF287 (zinc finger protein 287)	1.27
3	RHOXF1 (Rhox homeobox family member 1)	1.03
4	COMMD8 (COMM domain containing 8)	0.86
5	HEPACAM2 (HEPACAM family member 2)	0.98
6	RSL1D1 (ribosomal L1 domain containing 1)	1.14
7	PDE6A (phosphodiesterase 6A)	1.12
8	ATP11AUN (ATP11A upstream neighbor lncRNA)	1.1
9	KCNK1 (potassium two pore domain channel subfamily K member 1)	1.03
10	RRP7A (ribosomal RNA processing 7 homolog A)	1.04
11	PXDNL (peroxidasin like)	1.03
12	DUSP1 (dual specificity phosphatase 1)	1.08
13	MRAS (muscle RAS oncogene homolog)	1.02
14	CNGA4 (cyclic nucleotide gated channel subunit alpha 4)	1.25
15	ZNF554 (zinc finger protein 554)	0.94
16	TBC1D26 (TBC1 domain family member 26)	1.28
17	PPM1A (protein phosphatase, Mg2+/Mn2+ dependent 1A)	1.31
18	PRKRIP1 (PRKR interacting protein 1)	0.97
19	TATDN1 (TatD DNase domain containing 1)	1.12
20	TCF3 (transcription factor 3)	0.88
21	TMEM89 (transmembrane protein 89)	0.79
22	RAB37 (RAB37, member RAS oncogene family)	0.86
23	APOBEC3D (apolipoprotein B mRNA editing enzyme catalytic subunit 3D)	0.83
24	DIO2 (iodothyronine deiodinase 2)	0.98
25	NIPSNAP3B (nipsnap homolog 3B)	0.95
26	HOXD4 (homeobox D4)	1.05
27	ME3 (malic enzyme 3)	0.88
28	SLC25A45	0.81
29	OR5AC2 (olfactory receptor family 5 subfamily AC member 2)	1.1
30	TRIM29 (tripartite motif containing 29)	1.13
31	MPND (MPN domain containing)	0.81
32	CLCA4 (chloride channel accessory 4)	1.59
33	ITIH3 (inter-alpha-trypsin inhibitor heavy chain 3)	0.95
34	CYB5B (cytochrome b5 type B)	0.97
35	TMPRSS11D (transmembrane serine protease 11D)	1.39
36	SLC12A6	0.99
37	NUDT1 (nudix hydrolase 1)	1.55
38	MTMR9 (myotubularin related protein 9)	1.39
39	TMEM234 (transmembrane protein 234)	0.94
40	LY6E (lymphocyte antigen 6 family member E)	0.86
41	TMEM45A (transmembrane protein 45A)	1
42	BCL9L (BCL9 like)	1.02
43	C5orf46 (chromosome 5 open reading frame 46)	1.15
44	IFT88 (intraflagellar transport 88)	1.1
45	BAAT (bile acid-CoA:amino acid N-acyltransferase)	0.94
46	PGR (progesterone receptor)	0.81

Ordered by “CDH1-null / parental viability ratio” (low to high): some entries from above.
gene symbol	CDH1-null / parental viability ratio
COMMD8 (COMM domain containing 8)	0.86
HEPACAM2 (HEPACAM family member 2)	0.98
RHOXF1 (Rhox homeobox family member 1)	1.03
ATP11AUN (ATP11A upstream neighbor lncRNA)	1.1
PDE6A (phosphodiesterase 6A)	1.12
RSL1D1 (ribosomal L1 domain containing 1)	1.14
ZNF287 (zinc finger protein 287)	1.27
